Results deposited as PubChem BioAssay AID743121 (NCATS, 2013)
Aim: 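Genes whose silencing strengthens cell killing by camptothecin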 (primary screen). Cells: MDA-MB-231 cells, a human breast cancer line. Knock-down reagent: single siRNA against human genes, 20 nM siRNA (0.8 pmol per well). Timing: 120 h (drug added 48 h after transfection, read 72 h later). Treatment: camptothecin 20 nM (about EC30) for 72 h; vehicle 0.1% DMSO in parallel plates. Measured: 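CellTiter-Glo ATP signal, scaled to control siRNA as percent viability; sensitisation given as log2 of untreated divided by camptothecin-treated viability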. Reading the numbers: log2 vehicle/camptothecin viability: higher = stronger sensitisation to camptothecin. Hit rule: 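Active genes have an RSA gene-level p-value below 0.001, computed from the ratios of their separate siRNAs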.
This is an unselected part of about 26,000 reagents tested. 167 of them (0.63%) were called active. 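Calls are per gene from RSA p-values that are not deposited; an individual active-marked siRNA can sensitise only weakly.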 Not all columns of the deposit are shown. Reagent sequences are not shown.

SERPINA4 [SID164380628] scored log2 vehicle/camptothecin viability -0.019; inactive.
SERPINA4 [SID164380629] scored log2 vehicle/camptothecin viability -0.227; inactive.
Silencing of SERPINA4 [SID164380630] came out at: log2 vehicle/camptothecin viability -0.61; inactive.
Silencing of SERPINA4 [SID164380632] came out at: log2 vehicle/camptothecin viability -0.117; inactive.
Depletion of ACTL6A [SID164352140] gave: log2 vehicle/camptothecin viability -0.235; inactive.
Knock-down of ACTL6A [SID164352142] gave: log2 vehicle/camptothecin viability -0.426; inactive.
ACTL6A [SID164352143] showed log2 vehicle/camptothecin viability 0.132; inactive.
For ACTL6A [SID164352144], the entry reads log2 vehicle/camptothecin viability 0.0416; inactive.
With knock-down of OR5F1 [SID164657189], the record shows log2 vehicle/camptothecin viability -0.534; inactive.
Against OR5F1 [SID164657191] the deposit lists log2 vehicle/camptothecin viability -0.27; inactive.
After knock-down of OR5F1 [SID164657192], the screen gave log2 vehicle/camptothecin viability -0.333; inactive.
OR5F1 [SID164657196] showed log2 vehicle/camptothecin viability -0.485; inactive.
DUSP14 [SID164415378] showed log2 vehicle/camptothecin viability -0.184; inactive.
Against DUSP14 [SID164415380], the values are log2 vehicle/camptothecin viability -0.359; inactive.
Against DUSP14 [SID164415383] the deposit lists log2 vehicle/camptothecin viability -0.532; inactive.
After knock-down of DUSP14 [SID164415384] the results were log2 vehicle/camptothecin viability 0.0801; inactive.
After knock-down of CCL25 [SID164387397], the record shows log2 vehicle/camptothecin viability -0.265; inactive.
CCL25 [SID164387399] scored log2 vehicle/camptothecin viability 0.0443; inactive.
Silencing of CCL25 [SID164387401] came out at: log2 vehicle/camptothecin viability -0.215; inactive.
Depletion of CCL25 [SID164387402] came out at: log2 vehicle/camptothecin viability -0.0176; inactive.
For KCNQ2 [SID164372597], the entry reads log2 vehicle/camptothecin viability -0.201; inactive.
KCNQ2 [SID164372599] showed log2 vehicle/camptothecin viability -0.336; inactive.
KCNQ2 [SID164372602] showed log2 vehicle/camptothecin viability 0.00136; inactive.
With knock-down of KCNQ2 [SID164372603] the results were log2 vehicle/camptothecin viability -0.0135; inactive.
For SERPINB9 [SID164380663], the values are log2 vehicle/camptothecin viability -0.109; inactive.
Depletion of SERPINB9 [SID164380665] gave: log2 vehicle/camptothecin viability -0.236; inactive.
Silencing of SERPINB9 [SID164380666] came out at: log2 vehicle/camptothecin viability 0.163; inactive.
Silencing of SERPINB9 [SID164380667] came out at: log2 vehicle/camptothecin viability -0.27; inactive.
After knock-down of SLC9A2 [SID164388493], the screen gave log2 vehicle/camptothecin viability -0.132; inactive.
SLC9A2 [SID164388494] scored log2 vehicle/camptothecin viability -0.085; inactive.
For SLC9A2 [SID164388495], the entry reads log2 vehicle/camptothecin viability -0.199; inactive.
SLC9A2 [SID164388498] gave log2 vehicle/camptothecin viability -0.0229; inactive.
Silencing of CD59 [SID164357379] gave: log2 vehicle/camptothecin viability -0.214; inactive.
After knock-down of CD59 [SID164357381], the screen gave log2 vehicle/camptothecin viability -0.0414; inactive.
With knock-down of CD59 [SID164357382], the screen gave log2 vehicle/camptothecin viability -0.146; inactive.
For CD59 [SID164357383], the values are log2 vehicle/camptothecin viability -0.197; inactive.
